No constants are given. Whether binding was seen depends on the method and setting. In cells and extracts the contact can be indirect. Some results given as binding are weak or reduced against the parent protein; the word gives no strength. For some assays here: Tags and fused reporters may be left off the sequences shown.
Legend:
[1] = target: T1, FLAG-HA-tagged ACP1 (LMW-PTP) bait (human) (UniProt P24666); experiment: co-IP; HA-tagged bait immunoprecipitated from MCF10A lysate as for mass spectrometry, western blot for the associated endogenous protein, next to a control HA-GFP IP
T1 sequence: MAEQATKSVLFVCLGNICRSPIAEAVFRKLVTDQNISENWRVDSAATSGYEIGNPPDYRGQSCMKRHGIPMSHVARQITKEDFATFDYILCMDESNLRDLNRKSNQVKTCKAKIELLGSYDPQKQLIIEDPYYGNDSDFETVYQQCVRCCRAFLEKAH

By UniProt entry, the sequences of proteins in these tests, tags left out.
UniProt P35222: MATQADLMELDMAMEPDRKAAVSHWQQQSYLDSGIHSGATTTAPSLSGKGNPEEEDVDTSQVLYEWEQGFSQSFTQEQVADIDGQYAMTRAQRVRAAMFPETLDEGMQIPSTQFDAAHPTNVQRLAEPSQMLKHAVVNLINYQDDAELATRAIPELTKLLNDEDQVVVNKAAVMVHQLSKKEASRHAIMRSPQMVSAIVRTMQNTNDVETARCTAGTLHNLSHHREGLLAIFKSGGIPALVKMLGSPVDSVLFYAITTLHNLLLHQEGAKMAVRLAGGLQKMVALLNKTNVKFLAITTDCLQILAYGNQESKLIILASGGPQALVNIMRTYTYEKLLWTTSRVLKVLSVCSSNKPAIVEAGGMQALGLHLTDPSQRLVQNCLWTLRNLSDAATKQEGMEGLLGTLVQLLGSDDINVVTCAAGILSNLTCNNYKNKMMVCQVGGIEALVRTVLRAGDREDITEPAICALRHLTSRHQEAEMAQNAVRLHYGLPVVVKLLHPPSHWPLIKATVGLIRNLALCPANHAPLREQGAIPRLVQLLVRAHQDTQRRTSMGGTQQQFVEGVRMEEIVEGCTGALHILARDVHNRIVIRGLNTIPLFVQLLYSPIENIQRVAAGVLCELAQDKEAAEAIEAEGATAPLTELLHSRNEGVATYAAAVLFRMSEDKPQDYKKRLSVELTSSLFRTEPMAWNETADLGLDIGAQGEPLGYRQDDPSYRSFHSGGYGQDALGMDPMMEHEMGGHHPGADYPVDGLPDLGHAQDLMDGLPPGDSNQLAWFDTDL
UniProt P35221: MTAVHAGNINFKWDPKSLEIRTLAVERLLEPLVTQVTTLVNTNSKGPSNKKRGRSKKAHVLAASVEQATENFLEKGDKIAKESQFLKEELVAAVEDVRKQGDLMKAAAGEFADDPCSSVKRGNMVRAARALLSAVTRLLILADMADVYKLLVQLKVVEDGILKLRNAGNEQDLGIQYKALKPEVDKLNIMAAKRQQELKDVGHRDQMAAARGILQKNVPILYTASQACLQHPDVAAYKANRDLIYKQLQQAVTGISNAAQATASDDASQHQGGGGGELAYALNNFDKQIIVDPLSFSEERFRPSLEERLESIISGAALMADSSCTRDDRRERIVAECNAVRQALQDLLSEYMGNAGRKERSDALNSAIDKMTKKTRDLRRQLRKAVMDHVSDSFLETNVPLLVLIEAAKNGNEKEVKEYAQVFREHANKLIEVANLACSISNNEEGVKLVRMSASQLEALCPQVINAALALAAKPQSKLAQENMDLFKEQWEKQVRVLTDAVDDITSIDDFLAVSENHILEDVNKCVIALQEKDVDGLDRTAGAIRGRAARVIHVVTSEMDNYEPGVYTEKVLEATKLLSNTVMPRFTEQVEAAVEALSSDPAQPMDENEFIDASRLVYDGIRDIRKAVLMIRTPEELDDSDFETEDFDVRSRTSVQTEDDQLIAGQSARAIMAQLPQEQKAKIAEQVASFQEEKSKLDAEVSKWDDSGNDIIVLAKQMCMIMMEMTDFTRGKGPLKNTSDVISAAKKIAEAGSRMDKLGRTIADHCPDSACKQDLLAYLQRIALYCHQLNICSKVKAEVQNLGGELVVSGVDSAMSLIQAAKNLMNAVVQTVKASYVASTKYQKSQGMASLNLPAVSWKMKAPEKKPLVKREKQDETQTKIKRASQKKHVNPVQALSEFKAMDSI

[2] = target: β-catenin (CTNNB1), endogenous (human (endogenous in MCF10A)) (UniProt P35222); experiment: co-IP; endogenous β-catenin immunoprecipitated with anti-β-catenin antibody and protein A/G beads from MCF10A lysates (MCLB + PhosSTOP + 1 mM pervanadate), 4 °C, blot for α-catenin; cells with siRNA to GFP or DUSP23, or with control plasmid or HA-DUSP23

- binding [1]: binds
- binding [2]: binds
Substance: α-catenin (CTNNA1), endogenous (from UniProt P35221 1-906)

— publication PMC4891818
